Data as given in article PMC5630627.
No constants are given. Whether binding was seen depends on the method and setting. Binding seen in cells or lysates may run through a third protein. Binding can be weak; no strength is given.

The chains behind the UniProt entries cited, without tags or fusion partners. Where a name states a change or a piece, a line headed by the entry shows the natural chain unless it says otherwise.
UniProt P53355: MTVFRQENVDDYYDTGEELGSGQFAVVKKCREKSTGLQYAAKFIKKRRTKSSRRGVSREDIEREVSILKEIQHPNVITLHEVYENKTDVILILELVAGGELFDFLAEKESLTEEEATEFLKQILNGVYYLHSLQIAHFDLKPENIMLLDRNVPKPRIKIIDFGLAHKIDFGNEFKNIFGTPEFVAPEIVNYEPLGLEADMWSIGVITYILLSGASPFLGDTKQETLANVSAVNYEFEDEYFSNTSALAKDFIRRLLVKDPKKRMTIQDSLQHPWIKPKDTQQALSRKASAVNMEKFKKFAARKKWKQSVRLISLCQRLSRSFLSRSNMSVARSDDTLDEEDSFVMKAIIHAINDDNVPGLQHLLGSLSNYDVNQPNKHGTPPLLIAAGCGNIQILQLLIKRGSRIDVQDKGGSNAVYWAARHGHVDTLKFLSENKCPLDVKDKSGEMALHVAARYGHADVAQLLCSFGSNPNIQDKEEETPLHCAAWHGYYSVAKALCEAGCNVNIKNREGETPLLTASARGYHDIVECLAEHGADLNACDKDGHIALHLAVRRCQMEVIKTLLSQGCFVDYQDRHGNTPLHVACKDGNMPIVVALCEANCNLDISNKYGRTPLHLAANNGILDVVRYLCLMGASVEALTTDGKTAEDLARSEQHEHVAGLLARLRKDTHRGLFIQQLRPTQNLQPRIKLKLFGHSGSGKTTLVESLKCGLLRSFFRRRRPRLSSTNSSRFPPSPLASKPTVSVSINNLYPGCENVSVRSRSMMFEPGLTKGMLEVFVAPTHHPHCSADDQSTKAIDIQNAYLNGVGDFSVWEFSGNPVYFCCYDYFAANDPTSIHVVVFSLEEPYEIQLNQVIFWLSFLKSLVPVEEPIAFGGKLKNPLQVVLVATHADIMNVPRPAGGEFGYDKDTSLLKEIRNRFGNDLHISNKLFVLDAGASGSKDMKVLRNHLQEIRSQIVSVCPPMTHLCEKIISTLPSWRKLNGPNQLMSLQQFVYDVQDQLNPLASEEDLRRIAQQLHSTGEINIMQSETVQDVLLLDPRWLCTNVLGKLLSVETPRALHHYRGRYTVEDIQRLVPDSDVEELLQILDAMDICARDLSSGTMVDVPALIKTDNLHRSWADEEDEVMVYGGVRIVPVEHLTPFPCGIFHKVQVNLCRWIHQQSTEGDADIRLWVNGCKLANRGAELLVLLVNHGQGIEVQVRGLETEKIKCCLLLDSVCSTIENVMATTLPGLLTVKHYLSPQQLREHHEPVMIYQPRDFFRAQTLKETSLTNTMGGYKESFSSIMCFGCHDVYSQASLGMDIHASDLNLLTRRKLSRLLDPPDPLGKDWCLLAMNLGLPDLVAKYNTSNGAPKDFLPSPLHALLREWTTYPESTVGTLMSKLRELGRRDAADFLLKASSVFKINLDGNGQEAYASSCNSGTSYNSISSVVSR
UniProt Q16611: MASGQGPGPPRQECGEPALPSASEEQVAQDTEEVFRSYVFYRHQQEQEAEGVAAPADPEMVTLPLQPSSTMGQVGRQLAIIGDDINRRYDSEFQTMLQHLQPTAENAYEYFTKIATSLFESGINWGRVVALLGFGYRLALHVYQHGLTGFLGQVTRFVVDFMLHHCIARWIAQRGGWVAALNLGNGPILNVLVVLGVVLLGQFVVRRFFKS

Molecular target: DAPk1 kinase domain mutant K42A of Fig. 3c (UniProt P53355)
Assay: co-IP; 293T cells transfected with GFP-tagged DAPk1 deletion constructs and infected with HA-Ad-Bik; immunoprecipitation with anti-HA or anti-GFP antibodies; blots for GFP, HA, activated Bak (Fig. 3c)

For “Bak (endogenous) (from UniProt Q16611 1-211)”, the binding was “binds”.
